In PMC8616366 one finds binding data, which are given here for one substance.

By UniProt entry, the sequences of proteins in these tests, tags left out. Residues count along the entry.
UniProt O09165, residues 35-405: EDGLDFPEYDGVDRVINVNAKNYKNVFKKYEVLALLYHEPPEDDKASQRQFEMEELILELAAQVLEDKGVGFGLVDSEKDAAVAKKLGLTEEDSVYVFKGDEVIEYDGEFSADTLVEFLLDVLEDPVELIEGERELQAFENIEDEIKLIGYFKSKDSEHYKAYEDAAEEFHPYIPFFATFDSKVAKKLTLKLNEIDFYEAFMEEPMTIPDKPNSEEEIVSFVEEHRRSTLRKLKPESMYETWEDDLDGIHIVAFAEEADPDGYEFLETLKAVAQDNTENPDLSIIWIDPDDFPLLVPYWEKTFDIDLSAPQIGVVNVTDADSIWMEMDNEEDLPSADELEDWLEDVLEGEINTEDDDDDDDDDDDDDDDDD
UniProt Q8BWG9: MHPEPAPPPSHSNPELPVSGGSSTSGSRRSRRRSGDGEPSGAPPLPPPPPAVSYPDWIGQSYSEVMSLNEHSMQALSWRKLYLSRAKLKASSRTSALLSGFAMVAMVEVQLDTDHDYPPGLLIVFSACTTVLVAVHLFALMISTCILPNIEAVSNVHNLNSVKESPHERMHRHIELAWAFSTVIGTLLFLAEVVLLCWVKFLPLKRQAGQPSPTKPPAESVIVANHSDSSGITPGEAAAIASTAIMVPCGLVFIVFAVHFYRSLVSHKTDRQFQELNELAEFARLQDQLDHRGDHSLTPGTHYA
UniProt P83093, residues 15-746: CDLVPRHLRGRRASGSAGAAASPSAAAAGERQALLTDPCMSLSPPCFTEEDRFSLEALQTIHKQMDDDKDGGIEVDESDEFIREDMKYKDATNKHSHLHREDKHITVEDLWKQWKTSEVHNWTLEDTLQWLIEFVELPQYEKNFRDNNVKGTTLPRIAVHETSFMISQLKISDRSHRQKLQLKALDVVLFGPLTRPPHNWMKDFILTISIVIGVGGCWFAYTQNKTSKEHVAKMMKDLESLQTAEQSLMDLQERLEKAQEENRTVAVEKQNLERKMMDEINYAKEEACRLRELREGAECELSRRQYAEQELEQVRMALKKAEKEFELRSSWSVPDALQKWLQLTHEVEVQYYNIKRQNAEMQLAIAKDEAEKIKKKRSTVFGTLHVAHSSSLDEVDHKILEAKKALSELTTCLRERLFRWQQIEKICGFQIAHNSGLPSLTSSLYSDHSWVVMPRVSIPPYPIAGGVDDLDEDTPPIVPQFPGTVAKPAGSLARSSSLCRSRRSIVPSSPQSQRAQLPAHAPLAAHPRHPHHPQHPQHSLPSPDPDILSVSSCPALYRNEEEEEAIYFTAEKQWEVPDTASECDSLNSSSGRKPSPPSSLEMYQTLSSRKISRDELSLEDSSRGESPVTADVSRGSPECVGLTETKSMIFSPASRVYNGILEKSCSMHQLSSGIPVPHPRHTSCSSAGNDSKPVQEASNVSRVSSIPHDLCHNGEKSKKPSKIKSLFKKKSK

The target in assay [1] is full-length wild-type CASQ1 (WT CASQ1) expressed in mouse primary skeletal myotubes (mouse) (UniProt O09165). The assay can be described thus: co-IP; lysate (100 µg of total protein) of WT CASQ1 or C1-expressing mouse primary skeletal myotubes precipitated with anti-CASQ1 antibody; immunoblot with anti-CASQ1 or anti-STIM2; control without anti-CASQ1 antibody.
Assay [2] deals with Orai1, mouse primary skeletal myotubes (mouse (endogenous in primary skeletal myotubes)) (UniProt Q8BWG9). The assay can be described thus: co-IP; lysate (100 µg of total protein) of mouse primary skeletal myotubes transfected with vector control, WT CASQ1 or C1, precipitated with anti-Orai1 antibody; immunoblot with anti-Orai1 or anti-STIM2; control without anti-Orai1 antibody. A general note: Immunoblotting shows a protein as a band on a membrane.

Results are given in words; binding and its absence hold for the method and conditions named. Binding seen in cells or lysates may run through a third protein. Some entries that bind do so weakly or less than the wild type.

As for “Stromal interaction molecule 2 (STIM2), mouse primary skeletal myotubes (from UniProt P83093 15-746)”, the binding entry in assay [1] and in assay [2] was “binds” throughout.
